Results on eight substances are retold here after patent publication US20240043493 (published 2024).

End groups of sequences in plain letters are not given here.

The first series is described as follows: general procedure: Fmoc solid-phase peptide synthesis; pre-loaded H-Asn(Trt)-HMBP-ChemMatrix or H-Gly-HMBP-ChemMatrix; DIC/6-Cl-HOBt or DIC/OxymaPure. As to conditions: lipidation step, analytical rp-HPLC, several disulfide bridges, sequence written open.
For the substance “FVNQHLCGSHLVEALYLVCGERGFFYTK(C20)PTEEGPRRGIVEQCCHSICSLEQLENYCN”, the “final HPLC purity” value is above 98%.

In the case of “FVK(C20)QHLCGSHLVEALYLVCGERGFFYTPRTEEGPRRGIVEQCCHSICSLEQLENYCN”, the “final HPLC purity” value is above 95%.

With “FVNQHLCGSHLVEALYLVCGERGFFYTPRTEEGPK(C20)RGIVEQCCHSICSLEQLENYCN”, the “final HPLC purity” value is recorded as above 95%.

The series is the same for the next values; noted with them: whole synthesis, analytical rp-HPLC, scale of the general procedure 0.1 mmol, several disulfide bridges, sequence written open.
As to “FVNQHLCGSHLVEALYLVCGERGFFYTPRTEEGPKRGIVEQCCHSICSLEQLENYCN”, the “final HPLC purity” value was above 98%.

Regarding “AFVNQHLCGSHLVEALYLVCGERGFFYTPRTEEGPRRGIVEQCCHSICSLEQLENYCN”, the “final HPLC purity” value is on record as above 95%.

For the substance “FVNQHLCGSHLVEALYLVCGERGFFYTKPTEEGPRRGIVEQCCHSICSLEQLENYCN”, the “final HPLC purity” value is on record as above 95%.

On to “FVNQHLCGSHLVEALYLVCGERGFFYTPRTEEGPRRGIVEQCCHSICSLKQLENYCN”, for which the “final HPLC purity” value is recorded as above 95%.

Turning to “FVKQHLCGSHLVEALYLVCGERGFFYTPRTEEGPRRGIVEQCCHSICSLEQLENYCN”, the “final HPLC purity” value is reported as above 98%.
